Results published in PubChem BioAssay AID540256 (National Center for Advancing Translational Sciences (NCATS), 2011).
Among all 300,000 compounds or so, about 3,700 (1.2%) were called active. The shares of active, inactive and inconclusive entries below differ from those in the screen. The call rests on the fitted dose curve; tested in HEK293 cells. Where the call is inconclusive, the potency comes from a doubtful curve fit.

Experiment: qHTS for Inhibitors of binding or entry into cells for Lassa Virus; further: nearly all actives have a fitted effect of over 50% in size
Settings: Lassa virus pseudotype entry inhibition, cell reporter; activity change, negative = inhibition: at 37.9 µM (top of the series) unless noted
On the % scale 0 is the no-effect control and ±100 the full control effect; potency means the concentration at half of the fitted maximal effect.

Row | Structure (SMILES) | activity change, negative = inhibition | Potency
1 | CN1C2=NCCN2C(=O)c2cc(Cl)ccc21 | inactive: 6.79% | –
2 | COc1cc(C(=O)N(C)Cc2cccc(OC)c2OC)ccc1OCC(=O)Nc1cccc(C(F)(F)F)c1 | – | inconclusive: 28.2 µM [inhibitor, single point]
3 | CCOC(=O)Cn1c(-c2nonc2NC(=O)c2ccccc2F)nc2ccccc21 | – | active: 0.282 µM
4 | CCOc1ccc(OCC(=O)c2c(O)c3ccccc3oc2=O)cc1 | inactive: -6.64% | –
5 | O=C(NC(NNc1ccc([N+](=O)[O-])cc1)(C(F)(F)F)C(F)(F)F)c1ccc(Cl)cc1 | – | inconclusive: 9.2 µM [inhibitor, partial curve, poor fit]
6 | O=C(OCc1cn([C@@H]2CN(Cc3cccs3)[C@@H](c3ccc(Cl)cc3)C[C@@H]2O)nn1)c1ccccc1 | – | inconclusive: 28.1 µM [inhibitor, partial curve, poor fit]
7 | Cc1sc2ncn(CC(=O)Nc3ccc(C(F)(F)F)cc3)c(=O)c2c1S(=O)(=O)N1CCN(C)CC1 | inactive: 2.64% [at 46.1 µM] | –
8 | C[C@]12C[C@H](O)C3[C@@H](CCC4=CC(=O)CC[C@@]43C)[C@@H]1CC[C@@H]2C(=O)CO (stereo partly drawn) | inconclusive: 4.17% [activator] | –
9 | CN(C)C(=O)CN(c1ccc2c(c1)OCO2)S(C)(=O)=O | – | inconclusive: 23.1 µM [activator, single point]
10 | COc1ccc(N(CC(=O)NC2CCCCC2)C(=O)CCC(=O)Nc2nc(C)cs2)cc1 | – | inconclusive: 35.5 µM [inhibitor, single point]
11 | N#Cc1nc(-c2ccco2)oc1NCc1ccco1 | – | inconclusive: 0.259 µM [activator, partial curve]
12 | CCOC(=O)C1CCN(S(=O)(=O)c2ccc3c(c2)CC(=O)N3C)CC1 | – | inconclusive: 0.708 µM [inhibitor, partial curve, poor fit]
13 | CCC(C)(C)n1nnnc1C(c1ccc(OC)c(OC)c1)N1CCN(c2ccc(OC)cc2)CC1 (stereo not drawn) | – | inconclusive: 11.2 µM [inhibitor, partial curve]
14 | O=C(O)CN1CCN(C(c2ccccc2)c2ccccc2)CC1 | inactive: 1.74% [at 46.1 µM] | –
15 | CCOC(=O)c1[nH]c(C)c(CCC(=O)NCc2ccc(OC(C)C)cc2)c1C | – | inconclusive: 35.5 µM [inhibitor, single point]
16 | Cc1cccc(NC(=O)c2cnccn2)c1 | inactive: 9.53% | –
17 | CCOC(=O)CC1C(=O)NCCN1C(=O)c1ccc(Cl)c(Cl)c1 (stereo not drawn) | inactive: 2.34% [at 46.1 µM] | –
18 | CSc1cccc(NC(=O)/C=C/c2ccco2)c1 | inactive: -2.5% | –
19 | Cc1ccc(Nc2nc(-c3ccc(S(=O)(=O)N4CCCC4)cc3)cs2)cc1C | – | inconclusive: 20.6 µM [inhibitor, single point]
20 | Cc1nnc(SC(C)C(=O)Nc2ccc(S(=O)(=O)N3CCCCC3)cc2)s1 (stereo not drawn) | – | inconclusive: 6.31 µM [activator, single point]
21 | COc1ccc(OC)c(-c2cc(C(=O)Nc3cc(C)on3)no2)c1 | – | inconclusive: 0.184 µM [inhibitor, full curve, poor fit]
22 | COc1ccc(CN2CCC(n3nccc3NC(=O)CCOc3ccccc3)CC2)cc1C | – | inconclusive: 25.1 µM [inhibitor, partial curve, poor fit]
23 | CCOc1cc(/C=C2\COc3ccccc3C2=O)ccc1OCC(=O)N(C)C | – | inconclusive: 10 µM [inhibitor, partial curve, poor fit]

Molecules above that contain a carbonyl joined to an NH by a bond outside any ring:
Row | Structure (SMILES) | activity change, negative = inhibition | Potency
2 | COc1cc(C(=O)N(C)Cc2cccc(OC)c2OC)ccc1OCC(=O)Nc1cccc(C(F)(F)F)c1 | – | inconclusive: 28.2 µM [inhibitor, single point]
3 | CCOC(=O)Cn1c(-c2nonc2NC(=O)c2ccccc2F)nc2ccccc21 | – | active: 0.282 µM
5 | O=C(NC(NNc1ccc([N+](=O)[O-])cc1)(C(F)(F)F)C(F)(F)F)c1ccc(Cl)cc1 | – | inconclusive: 9.2 µM [inhibitor, partial curve, poor fit]
7 | Cc1sc2ncn(CC(=O)Nc3ccc(C(F)(F)F)cc3)c(=O)c2c1S(=O)(=O)N1CCN(C)CC1 | inactive: 2.64% [at 46.1 µM] | –
10 | COc1ccc(N(CC(=O)NC2CCCCC2)C(=O)CCC(=O)Nc2nc(C)cs2)cc1 | – | inconclusive: 35.5 µM [inhibitor, single point]
15 | CCOC(=O)c1[nH]c(C)c(CCC(=O)NCc2ccc(OC(C)C)cc2)c1C | – | inconclusive: 35.5 µM [inhibitor, single point]
16 | Cc1cccc(NC(=O)c2cnccn2)c1 | inactive: 9.53% | –
18 | CSc1cccc(NC(=O)/C=C/c2ccco2)c1 | inactive: -2.5% | –
20 | Cc1nnc(SC(C)C(=O)Nc2ccc(S(=O)(=O)N3CCCCC3)cc2)s1 (stereo not drawn) | – | inconclusive: 6.31 µM [activator, single point]
21 | COc1ccc(OC)c(-c2cc(C(=O)Nc3cc(C)on3)no2)c1 | – | inconclusive: 0.184 µM [inhibitor, full curve, poor fit]
22 | COc1ccc(CN2CCC(n3nccc3NC(=O)CCOc3ccccc3)CC2)cc1C | – | inconclusive: 25.1 µM [inhibitor, partial curve, poor fit]

Later entries

Row | Structure (SMILES) | activity change, negative = inhibition | Potency
24 | CCOc1ccc(C(=O)Nc2ccc(-c3nc4ccccc4[nH]3)cc2)cc1[N+](=O)[O-] | inactive: 1.33% | –
25 | CCCN1CCN(C(=S)Nc2ccc(SC(F)F)cc2)CC1 | – | inconclusive: 20 µM [inhibitor, single point]
26 | Cc1ccc(-c2nnn(CC(=O)N(c3ccccc3)C(C(=O)NCC3CCCO3)c3ccc(Cl)cc3)n2)cc1 (stereo not drawn) | – | inconclusive: 32.6 µM [inhibitor, partial curve, poor fit]
27 | CC1(C)CC(=O)C(C=NCC2CCN(C(=S)Nc3cccc(Cl)c3)CC2)=C(O)C1 | – | inconclusive: 12.6 µM [inhibitor, partial curve, poor fit]
28 | COc1ccc2[nH]c(=O)c(CNc3ccc(C)cc3C)cc2c1 | – | inconclusive: 23.1 µM [inhibitor, single point]
29 | CC1=C(C(=O)OCc2ccccc2)C(c2ccc(C)o2)C2=C(CCCC2=O)N1 (stereo not drawn) | – | inconclusive: 20 µM [inhibitor, partial curve, poor fit]
30 | Nc1cc(=O)[nH]c(SCC(=O)N2N=C(c3ccc4ccccc4c3)CC2c2ccccc2)n1 (stereo not drawn) | – | inconclusive: 11.6 µM [inhibitor, partial curve]
31 | COc1ccc(CN2CCN(S(=O)(=O)c3ccccc3)CC2)c(OC)c1 | – | inconclusive: 11.2 µM [inhibitor, partial curve, poor fit]
32 | CCCn1cc(S(=O)(=O)c2ccc(OC)cc2)c(=O)c2cc(F)c(N3CCCCCC3)cc21 | – | inconclusive: 3.55 µM [inhibitor, partial curve, poor fit]
33 | CC(C)Oc1ccc(CNC(=O)C2CCCN(S(=O)(=O)c3ccc4c(ccn4C)c3)C2)cc1 (stereo not drawn) | – | inconclusive: 7.08 µM [inhibitor, partial curve]
34 | COC(=O)c1c(NC(=O)COc2ccc(OC)cc2)sc2c1CCC(C)C2 (stereo not drawn) | inactive: 15% [at 46.1 µM] | –
35 | Cc1ccc(C(=O)NC2(O)C(=O)c3ccccc3C2=O)cc1C | – | inconclusive: 17.8 µM [inhibitor, partial curve, poor fit]
36 | CCCc1cc(=O)[nH]c2nnc(SCCC(C)C)n12 | – | inconclusive: 15.8 µM [activator, single point]
37 | Oc1c(Br)cc(C=Nc2ccc3nc(-c4ccccc4)[nH]c3c2)c(O)c1Br | inactive: -27.3% [at 46.1 µM] | –
38 | Cc1ccc2c(N)c(C(=O)N(c3ccccc3)c3ccccc3)sc2n1 | – | inconclusive: 32.6 µM [inhibitor, single point]
39 | O=C(Nc1ccc(Br)cc1)c1cc(-c2cccs2)on1 | inactive: -27.2% [at 46.1 µM] | –
40 | CC(C)(C)c1ccc(/C=N/OCC(=O)NCc2ccccc2)cc1 | – | inconclusive: 20.6 µM [inhibitor, partial curve, poor fit]
41 | NS(=O)(=O)c1ccc(N=Nc2c(O)[nH]c3ccc(C(=O)NCCc4cnc[nH]4)cc23)cc1 | – | active: 4.99 µM
42 | O=C(Nc1cccc(-c2cn3c(n2)SCC3)c1)c1ccc2c(c1)OCO2 | inactive: -4.26% | –
43 | CCS(=O)(=O)Nc1ccc(-c2cc(-c3ccccc3)c3cc(C)ccc3n2)cc1 | – | inconclusive: 31.6 µM [inhibitor, single point]
44 | Cc1cc(C)cc(NCCC#N)c1 | – | inconclusive: 1.12 µM [activator, single point]
45 | COc1cc(CNc2ccc(C(=O)O)cc2)cc(Br)c1OCC(=O)NC(C)(C)C | inactive: 10.9% | –
46 | Cc1ccc(CNC(=O)C2CCCN(Cc3cnn(-c4ccccc4)c3-n3cccc3)C2)cc1 (stereo not drawn) | – | inconclusive: 20.6 µM [inhibitor, single point]

Entries shown so far that have a tert-butyl group (two):
Row | Structure (SMILES) | activity change, negative = inhibition | Potency
40 | CC(C)(C)c1ccc(/C=N/OCC(=O)NCc2ccccc2)cc1 | – | inconclusive: 20.6 µM [inhibitor, partial curve, poor fit]
45 | COc1cc(CNc2ccc(C(=O)O)cc2)cc(Br)c1OCC(=O)NC(C)(C)C | inactive: 10.9% | –

(next part)

Row | Structure (SMILES) | activity change, negative = inhibition | Potency
47 | O=C(CSc1nc2ccccc2o1)NCC1CCCO1 (stereo not drawn) | – | inconclusive: 0.794 µM [activator, single point]
48 | COc1ccc(N2CC(C(=O)N3CCN(c4ccccc4F)CC3)CC2=O)cc1 (stereo not drawn) | – | inconclusive: 20 µM [inhibitor, single point]
49 | Cc1ccc(NC(=O)C(=O)NN=C2CCCC2)cc1C | inactive: -4.11% | –
50 | Cc1ccccc1OCC(=O)Nc1ccc(Cc2ccncc2)cc1 | – | inconclusive: 29.1 µM [inhibitor, single point]
51 | CCc1ccc(NC(=O)C2(C)Cc3ccccc3C(=O)O2)cc1 (stereo not drawn) | inactive: 6.17% | –
52 | O=C(O)COc1ccccc1/C=C1\SC(=S)N(c2cccnc2)C1=O | – | inconclusive: 20 µM [inhibitor, partial curve, poor fit]
53 | CCCc1cc(=O)[nH]c2nnc(SCC(=O)Nc3cccc(C)c3)n12 | – | inconclusive: 7.08 µM [activator, partial curve, poor fit]
54 | Oc1ccccc1OCC(O)c1ccccc1 (stereo not drawn) | inactive: -6.81% | –
55 | CCCNC(=O)c1c2c(nc3ccccc13)C(=O)N(C1CCCCC1)C2 | inactive: -3.58% [at 46.1 µM] | –
56 | CCOC(=O)Cn1c(=O)c2c(nc3n2CCCN3CCc2ccccc2)n(C)c1=O | – | inconclusive: 1.12 µM [inhibitor, full curve, poor fit]
57 | Cc1occc1C(=O)N/N=C/c1cccnc1 | – | inconclusive: 5.8 µM [activator, full curve, poor fit]
58 | O=C1CC2(CCCCC2)CC(=O)N1CCc1ccccc1 | inactive: 20.5% [at 46.1 µM] | –
59 | O=C(/C=C/Nc1ccccc1C(F)(F)F)c1ccco1 | – | inconclusive: 14.1 µM [inhibitor, single point]
60 | Cc1ccc(C)c(NC(=O)C(Sc2nc3ccc(C)cc3[nH]2)c2ccccc2)c1 (stereo not drawn) | – | inconclusive: 35.5 µM [inhibitor, single point]
61 | CCOC(=O)CNc1ncnc2c1nnn2C | inactive: 7.25% [at 46.1 µM] | –
62 | N#Cc1sc2nc(-c3ccccc3)cc(-c3ccco3)c2c1N | – | inconclusive: 35.5 µM [inhibitor, single point]
63 | CC1CCCCN1C(=O)Cn1cc(C=O)c2ccccc21 (stereo not drawn) | inactive: 7.63% | –
64 | O=C(Cc1ccc(NS(=O)(=O)c2ccc(F)cc2)cc1)NCc1ccccc1 | – | inconclusive: 35.5 µM [inhibitor, single point]
65 | Cc1ccc(C)c(S(=O)(=O)N2CC(=O)N(CCc3ccccc3)C(=O)C2)c1 | – | inconclusive: 6.31 µM [inhibitor, single point]
66 | COc1ccc([N+](=O)[O-])cc1NC(=O)C(C)Sc1ccccc1 (stereo not drawn) | inactive: 6.53% | –
67 | Cc1c(C(=O)Nc2cccc(C(F)(F)F)c2)oc2ccc(S(=O)(=O)N(C)C3CCCCC3)cc12 | – | inconclusive: 14.1 µM [activator, single point]
68 | O=C(CC1C(=O)N(c2ccccc2)C(=O)N1CCc1cccs1)Nc1ccc(Cl)cc1 (stereo not drawn) | – | inconclusive: 35.5 µM [inhibitor, single point]
